Measured values as given in patent US20080248458A1 (UNIVERSITY OF NORTH CAROLINA AT CHAPEL HILL, published 2008).
These are yes or no findings as the source states them, for the method shown. In cells and extracts the contact can be indirect. Some results given as binding are weak or reduced against the parent protein; the word gives no strength. For some assays here: Sequences can lack the tags named with a protein.

Key:
GST-Bmi-1 (mouse) [1] = biological target: T1, GST-Bmi-1 (mouse) (UniProt P25916); experiment: GST pull-down with 35S-labelled in vitro translated proteins (FIG. 5A)
T1 sequence (looked up): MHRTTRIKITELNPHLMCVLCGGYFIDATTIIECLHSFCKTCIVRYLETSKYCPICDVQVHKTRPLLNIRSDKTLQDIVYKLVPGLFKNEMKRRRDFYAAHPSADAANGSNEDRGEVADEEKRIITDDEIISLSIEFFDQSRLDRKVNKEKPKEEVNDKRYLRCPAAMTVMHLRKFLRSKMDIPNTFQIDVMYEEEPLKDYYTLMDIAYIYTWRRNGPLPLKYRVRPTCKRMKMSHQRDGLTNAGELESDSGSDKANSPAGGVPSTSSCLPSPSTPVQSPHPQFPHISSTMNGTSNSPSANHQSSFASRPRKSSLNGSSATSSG

GST-Bmi-1 (mouse) [2] = biological target: T1, GST-Bmi-1 (mouse); experiment: GST pull-down: GST fusion on glutathione beads, 35S-labelled in vitro translated protein, fluorography (FIG. 5A)
GST-Pc3 (mouse) = biological target: T2, GST-Pc3 (mouse) (UniProt Q9QXV1); experiment: as above
T2 sequence (looked up): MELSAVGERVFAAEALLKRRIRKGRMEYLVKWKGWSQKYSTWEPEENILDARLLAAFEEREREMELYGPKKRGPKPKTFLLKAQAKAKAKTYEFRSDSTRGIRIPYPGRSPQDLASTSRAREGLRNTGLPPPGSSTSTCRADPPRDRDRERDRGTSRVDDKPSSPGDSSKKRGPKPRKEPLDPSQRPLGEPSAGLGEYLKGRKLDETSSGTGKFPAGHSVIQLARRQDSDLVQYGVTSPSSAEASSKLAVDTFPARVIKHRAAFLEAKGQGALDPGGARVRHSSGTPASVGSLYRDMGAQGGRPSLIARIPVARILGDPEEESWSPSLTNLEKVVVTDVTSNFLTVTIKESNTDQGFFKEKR

GST-Ph2 (mouse) = biological target: T3, GST-Ph2 (mouse) (UniProt Q9QWH1); experiment: as above
T3 sequence (looked up): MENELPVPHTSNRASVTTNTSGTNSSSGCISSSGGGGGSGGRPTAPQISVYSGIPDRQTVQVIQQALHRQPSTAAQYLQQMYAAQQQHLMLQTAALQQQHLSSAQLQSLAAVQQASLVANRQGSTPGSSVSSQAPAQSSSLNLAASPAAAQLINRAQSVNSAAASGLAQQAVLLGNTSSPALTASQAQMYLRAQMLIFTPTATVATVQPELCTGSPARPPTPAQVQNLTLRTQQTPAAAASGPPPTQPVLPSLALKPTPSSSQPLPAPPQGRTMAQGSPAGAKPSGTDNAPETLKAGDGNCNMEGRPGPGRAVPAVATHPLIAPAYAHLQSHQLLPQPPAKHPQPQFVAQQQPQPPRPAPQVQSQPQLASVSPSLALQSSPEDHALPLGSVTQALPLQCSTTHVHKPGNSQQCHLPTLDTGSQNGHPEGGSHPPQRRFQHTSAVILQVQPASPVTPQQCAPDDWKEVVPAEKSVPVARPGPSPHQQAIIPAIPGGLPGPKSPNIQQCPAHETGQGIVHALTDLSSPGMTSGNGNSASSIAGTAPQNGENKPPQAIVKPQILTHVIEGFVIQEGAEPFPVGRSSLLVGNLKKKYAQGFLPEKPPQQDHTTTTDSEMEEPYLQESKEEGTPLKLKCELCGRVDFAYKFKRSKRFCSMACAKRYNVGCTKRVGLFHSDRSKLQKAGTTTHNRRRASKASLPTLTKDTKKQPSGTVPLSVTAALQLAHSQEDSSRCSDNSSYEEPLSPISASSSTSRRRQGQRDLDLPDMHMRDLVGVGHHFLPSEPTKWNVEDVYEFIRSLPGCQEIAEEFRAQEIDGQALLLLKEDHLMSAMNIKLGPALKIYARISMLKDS

GST-Ring1B (mouse) [3] = biological target: GST-Ring1B (mouse) (UniProt Q9CQJ4); experiment: GST pull-down, summary scheme (FIG. 5B)
GST-Ring1A [4] = biological target: T4, GST-Ring1A (mouse, UniProt O35730 1-406); experiment: GST pull-down, summary scheme (FIG. 5B)
T4 construct: mature; Full-length cDNA cloned into pGEX-KG; also called GST fusion of Ring1A; not shown: glutathione S-transferase (GST) encoded by the pGEX-KG vector
T4 sequence (looked up): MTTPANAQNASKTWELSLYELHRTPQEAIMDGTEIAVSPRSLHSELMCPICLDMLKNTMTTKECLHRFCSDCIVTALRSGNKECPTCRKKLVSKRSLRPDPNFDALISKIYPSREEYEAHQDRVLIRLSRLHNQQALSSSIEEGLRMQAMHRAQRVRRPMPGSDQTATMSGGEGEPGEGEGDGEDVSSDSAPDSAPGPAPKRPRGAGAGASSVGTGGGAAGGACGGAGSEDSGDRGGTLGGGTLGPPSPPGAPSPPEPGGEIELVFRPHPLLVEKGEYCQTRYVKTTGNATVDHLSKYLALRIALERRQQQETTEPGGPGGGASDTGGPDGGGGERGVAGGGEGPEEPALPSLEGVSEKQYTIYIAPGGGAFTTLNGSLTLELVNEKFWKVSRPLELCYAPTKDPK

GST-Ring1B (mouse) [5] = biological target: GST-Ring1B (mouse) (UniProt Q9CQJ4); experiment: GST pull-down: GST fusion on glutathione beads, 35S-labelled in vitro translated protein, fluorography (FIG. 5A)
GST-Ring1A [6] = biological target: T4, GST-Ring1A; experiment: as above

Measured: binding

Ring1A (from UniProt O35730 1-406)
binds: GST-Bmi-1 (mouse) [1] | GST-Bmi-1 (mouse) [2] | GST-Pc3 (mouse) | GST-Ph2 (mouse)

B1: Bmi-1 (other, mouse, UniProt P25916 1-324, looked up)
chain: T1 sequence (looked up)
notes: mature; Untagged protein: 35S-labelled in vitro translation product in the GST pull-down; baculovirus-expressed in Sf9 cells in the two-component complex with FLAG-Ring1B
binds: GST-Ring1B (mouse) [3] | GST-Ring1A [4] | GST-Pc3 (mouse) | GST-Ph2 (mouse) | GST-Ring1B (mouse) [5] | GST-Ring1A [6]

B2: Ph2 (protein, mouse, UniProt Q9QWH1 1-850, looked up)
chain: T3 sequence (looked up)
binds: GST-Bmi-1 (mouse) [2] | GST-Ring1B (mouse) [5] | GST-Ring1A [6]

B3: Pc3 (protein, mouse, UniProt Q9QXV1 1-362, looked up)
chain: T2 sequence (looked up)
binds: GST-Bmi-1 (mouse) [2] | GST-Ring1B (mouse) [5] | GST-Ring1A [6]

B4: Ring1B (enzyme, mouse, UniProt Q9CQJ4 2-336, looked up)
chain: SQAVQTNGTQPLSKTWELSLYELQRTPQEAITDGLEIVVSPRSLHSELMCPICLDMLKNTMTTKECLHRFCADCIITALRSGNKECPTCRKKLVSKRSLRPDPNFDALISKIYPSRDEYEAHQERVLARINKHNNQQALSHSIEEGLKIQAMNRLQRGKKQQIENGSGAEDNGDSSHCSNASTHSNQEAGPSNKRTKTSDDSGLELDNNNAAVAIDPVMDGASEIELVFRPHPTLMEKDDSAQTRYIKTSGNATVDHLSKYLAVRLALEELRSKGESNQMNLDTASEKQYTIYIATASGQFTVLNGSFSLELVSEKYWKVNKPMELYYAPTKEHK
notes: mature; Untagged protein: 35S-labelled in vitro translation product (pCITE, full-length cDNA) in the GST pull-down; baculovirus-expressed in Sf9 cells in the co-purifications; also called Ring2; Ring2/Ring1B
binds: GST-Bmi-1 (mouse) [1] | GST-Bmi-1 (mouse) [2] | GST-Pc3 (mouse) | GST-Ph2 (mouse)
